PubChem BioAssay AID588590 (National Center for Advancing Translational Sciences (NCATS), 2011)
Hit rate of the full screen: of about 390,000 compounds, about 4,000 (1%) were called active. The shares of active, inactive and inconclusive entries below differ from those in the screen. Calls come from the whole dose curve; as a rule, active = well fitted inhibition curve with a large enough effect; inconclusive = small, poorly fitted or top-dose-only effect, or another doubt; inactive = no such curve, though single readings can be large or run the other way. A potency beside an inconclusive call is a rough fit, not a confirmed value.

Sequences of proteins named here, by UniProt entry; tags and fusion partners are left off. A change or cut given only in a name is not applied to a line headed by its entry.
UniProt Q9UNA4: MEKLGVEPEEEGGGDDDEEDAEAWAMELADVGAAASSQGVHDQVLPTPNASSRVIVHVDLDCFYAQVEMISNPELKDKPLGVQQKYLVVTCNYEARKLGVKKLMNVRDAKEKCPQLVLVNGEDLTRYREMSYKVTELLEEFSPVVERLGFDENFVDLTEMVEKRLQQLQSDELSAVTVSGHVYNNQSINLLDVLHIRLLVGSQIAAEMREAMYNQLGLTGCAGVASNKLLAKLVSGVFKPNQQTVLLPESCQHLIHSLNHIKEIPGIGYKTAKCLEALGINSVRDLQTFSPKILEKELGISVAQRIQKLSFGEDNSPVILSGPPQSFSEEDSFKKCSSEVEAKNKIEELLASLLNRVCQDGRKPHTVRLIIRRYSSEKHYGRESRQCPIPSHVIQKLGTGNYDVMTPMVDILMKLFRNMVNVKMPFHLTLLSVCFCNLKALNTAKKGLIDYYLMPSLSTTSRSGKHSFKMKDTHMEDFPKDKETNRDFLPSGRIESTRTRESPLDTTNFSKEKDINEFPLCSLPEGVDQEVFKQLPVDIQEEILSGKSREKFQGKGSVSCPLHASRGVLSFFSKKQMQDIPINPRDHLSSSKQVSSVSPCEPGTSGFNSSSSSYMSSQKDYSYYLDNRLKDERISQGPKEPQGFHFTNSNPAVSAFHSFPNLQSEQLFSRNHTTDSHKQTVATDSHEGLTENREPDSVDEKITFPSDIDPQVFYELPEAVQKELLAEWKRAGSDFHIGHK

What follows are molecules tested against DNA polymerase iota (Homo sapiens) (UniProt Q9UNA4) (assay: qHTS for Inhibitors of Polymerase Iota). Settings: Pol iota fluorescent replication assay, 10 min; series mostly up to 115 µM.
Method in brief: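 Pol iota at 10 nM preincubated 15 min with compounds at room temperature; reaction started with fluorescent substrate, 50 nM final. Fluorescence read kinetically at 0 and 10 min; buffer-only wells as negative control.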
Potency is the fitted concentration of half-maximal effect.

Row | SMILES | Potency
1 | OCC1OC(n2cnc3c(=S)nc[nH]c32)C(O)C1O (stereo not given) | inconclusive: 31.6 µM [inhibitor, single point]
2 | C[C@H](NC(=O)/C(C#N)=C/c1ccc(O)c(O)c1)c1ccccc1 | inconclusive: 15 µM [inhibitor, partial curve]
3 | FC(F)(F)c1cc(-c2ccco2)nc(NCc2ccc(Cl)cc2)n1 | inconclusive: 28.2 µM [inhibitor, single point]
4 | COc1ccc(N2CC(O)=C(c3nc(-c4ccccc4)cs3)C2=N)cc1 | inconclusive: 63.1 µM [inhibitor, partial curve, poor fit]
5 | O=c1c2ccccc2nc(SCc2ccc([N+](=O)[O-])cc2)n1CCCO | inconclusive: 89.1 µM [inhibitor, partial curve, poor fit]
6 | Cc1nc(NC(=O)CC(C)C)sc1-c1csc(Nc2ccc(Cl)cc2Cl)n1 | inconclusive: 25.1 µM [inhibitor, single point]
7 | COc1ccc(/C=C2\SC(=S)N(NS(=O)(=O)c3ccc(C)cc3)C2=O)c(OC)c1 | inactive
8 | COc1c(OC2OC(C(=O)O)C(O)C(O)C2O)cc(O)c2c(=O)cc(-c3ccccc3)oc12 (stereo not given) | inactive
9 | CCCn1cc(S(=O)(=O)c2ccc(C)c(C)c2)c(=O)c2cc(F)c(N3CCCCC3)cc21 | inconclusive: 100 µM [inhibitor, partial curve, poor fit]
10 | FC(F)(F)c1cccc(Nc2nc3nonc3nc2Nc2ccc(Cl)cc2)c1 | inconclusive: 89.1 µM [inhibitor, single point]
11 | Cn1c(=O)c2c(nc(NCc3ccco3)n2CCc2ccccc2)n(C)c1=O | inconclusive: 12.6 µM [inhibitor, partial curve, poor fit]
12 | O=C(Nc1ccc(S(=O)(=O)Nc2ncccn2)cc1)c1nn(Cc2ccccc2)c(=O)c2ccccc12 | inconclusive: 14.1 µM [inhibitor, partial curve, poor fit]
13 | CC(C)c1ccc(C2CC(=O)N3CN(C4CCCCC4)CSC3=C2C#N)cc1 (stereo not given) | inconclusive: 14.1 µM [inhibitor, full curve, poor fit]
14 | Nc1ccc2nc(-c3ccc(N)c(Cl)c3)[nH]c2c1 | inconclusive: 10 µM [inhibitor, full curve, poor fit]
15 | CCN(CC)c1ccc(CN(C(=O)c2cc(=O)c3ccccc3o2)C2CCS(=O)(=O)C2)cc1 (stereo not given) | inactive
16 | O=C(CSc1nc(C2CC2)nc2ccccc12)Nc1cccc(O)c1 | inconclusive: 39.8 µM [inhibitor, single point]
17 | CN(Cc1ccccc1)c1ncnc2ccc(Br)cc12 | inconclusive: 35.5 µM [inhibitor, single point]
18 | COc1ccc(-c2csc(NC(=O)C3CC(=O)N(c4ccc5c(c4)OCCO5)C3)n2)cc1 (stereo not given) | inconclusive: 112 µM [inhibitor, partial curve, poor fit]
19 | C=Cc1ccc(Cn2c(C(=O)O)c(CNCCc3ccco3)c3ccc(C)cc32)cc1 | inconclusive: 79.4 µM [inhibitor, partial curve, poor fit]
20 | O=C(CSc1ncccn1)Nc1ccc(N2CCOCC2)cc1 | inactive

Copied from above: nos. 8–18
Row | SMILES | Potency
8 | COc1c(OC2OC(C(=O)O)C(O)C(O)C2O)cc(O)c2c(=O)cc(-c3ccccc3)oc12 (stereo not given) | inactive
9 | CCCn1cc(S(=O)(=O)c2ccc(C)c(C)c2)c(=O)c2cc(F)c(N3CCCCC3)cc21 | inconclusive: 100 µM [inhibitor, partial curve, poor fit]
10 | FC(F)(F)c1cccc(Nc2nc3nonc3nc2Nc2ccc(Cl)cc2)c1 | inconclusive: 89.1 µM [inhibitor, single point]
11 | Cn1c(=O)c2c(nc(NCc3ccco3)n2CCc2ccccc2)n(C)c1=O | inconclusive: 12.6 µM [inhibitor, partial curve, poor fit]
12 | O=C(Nc1ccc(S(=O)(=O)Nc2ncccn2)cc1)c1nn(Cc2ccccc2)c(=O)c2ccccc12 | inconclusive: 14.1 µM [inhibitor, partial curve, poor fit]
13 | CC(C)c1ccc(C2CC(=O)N3CN(C4CCCCC4)CSC3=C2C#N)cc1 (stereo not given) | inconclusive: 14.1 µM [inhibitor, full curve, poor fit]
14 | Nc1ccc2nc(-c3ccc(N)c(Cl)c3)[nH]c2c1 | inconclusive: 10 µM [inhibitor, full curve, poor fit]
15 | CCN(CC)c1ccc(CN(C(=O)c2cc(=O)c3ccccc3o2)C2CCS(=O)(=O)C2)cc1 (stereo not given) | inactive
16 | O=C(CSc1nc(C2CC2)nc2ccccc12)Nc1cccc(O)c1 | inconclusive: 39.8 µM [inhibitor, single point]
17 | CN(Cc1ccccc1)c1ncnc2ccc(Br)cc12 | inconclusive: 35.5 µM [inhibitor, single point]
18 | COc1ccc(-c2csc(NC(=O)C3CC(=O)N(c4ccc5c(c4)OCCO5)C3)n2)cc1 (stereo not given) | inconclusive: 112 µM [inhibitor, partial curve, poor fit]

Continued:

Row | SMILES | Potency
21 | COc1ccc(/C=N/NC(=O)c2ccc(=O)[nH]n2)cc1OC | active: 100 µM
22 | CC(Sc1nc2sccc2c(=O)n1-c1ccccc1)C(N)=O (stereo not given) | inconclusive: 22.4 µM [inhibitor, single point]
23 | Cc1ccc(-n2ncc3c(NCCc4ccc(S(N)(=O)=O)cc4)ncnc32)cc1 | inactive
24 | CC(=O)C1=C(O)C(=O)N(CCC(=O)O)C1c1cccc(F)c1 (stereo not given) | inconclusive: 50.1 µM [inhibitor, partial curve, poor fit]
25 | COC(=O)C1=C(C(=O)OC)C(c2cc(Cl)ccc2O)c2sc(=O)[nH]c2S1 (stereo not given) | inconclusive: 28.2 µM [inhibitor, single point]
26 | O=C(CSc1nc2ccsc2c(=O)n1Cc1ccc(C(=O)O)cc1)NCc1ccco1 | inconclusive: 35.5 µM [inhibitor, single point]
27 | COC(=O)[C@]1(C)N[C@H](c2ccc(-c3ccc(Cl)c(Cl)c3)c(OC)c2)[C@@H]2C(=O)N(C)C(=O)[C@@H]21 | inconclusive: 14.1 µM [inhibitor, full curve]
28 | CC(=O)c1ccc(S(=O)(=O)Nc2ccc3c(c2)OCO3)cc1 | inconclusive: 0.631 µM [inhibitor, full curve, poor fit]
29 | CN(C)S(=O)(=O)c1cccc(NC(=O)CSc2cccc3cccnc23)c1 | inconclusive: 11.2 µM [inhibitor, partial curve]
30 | CCCCN(CC)c1nc(N)c2c(N)nc(OCC)cc2c1C#N | inconclusive: 12.6 µM [inhibitor, partial curve, poor fit]
31 | CCOc1ccccc1NC(=O)CCS(=O)(=O)c1ccc(Br)cc1 | active: 17.8 µM
32 | COc1ccccc1C=C1SC(=S)NC1=O | inconclusive: 79.4 µM [inhibitor, single point]
33 | Cc1ccc(C)c(S(=O)(=O)Nc2ccc(O)c(Sc3ncn[nH]3)c2)c1 | inconclusive: 25.1 µM [inhibitor, single point]
34 | COc1ccc(S(=O)(=O)NCCSC(C)(C)C)c(Cl)c1Cl | inconclusive: 15.8 µM [inhibitor, full curve]
35 | COc1ccc(Nc2ncccc2C(=O)NCc2ccccc2)cc1 | inactive
36 | Oc1ccc(-c2csc(Nc3ccccn3)n2)c(O)c1 | inconclusive: 39.8 µM [inhibitor, single point]
37 | COc1ccc(NS(=O)(=O)c2ccc3c(c2)CCC(=O)N3)cc1O | inconclusive: 56.2 µM [inhibitor, partial curve, poor fit]
38 | COc1ccccc1CNC(=O)CCS(=O)(=O)c1ccc2c(c1)oc(=O)n2C | inconclusive: 89.1 µM [inhibitor, single point]
39 | Cc1cccc(N2CC(C(=O)Nc3nnc(SCC(=O)NCC4CCCO4)s3)CC2=O)c1 (stereo not given) | inconclusive: 14.1 µM [inhibitor, full curve, poor fit]
40 | CC(C)Oc1ccc(C(=O)N(Cc2ccc(N(C)C)cc2)Cc2ccco2)cc1 | inactive
